{"source": "patent US9492398B2", "about": "“Nanocapsulation of essential oils for preventing or curing infectious diseases alone or with an antibiotic” (Eydo Pharma, priority 2011, dated 2016)", "origin": "cited, not measured here", "conditions": "from the literature; cited from earlier work"}
{"compound": "O=C(O)c1cn(C2CC2)c2cc(N3CCNCC3)c(F)cc2c1=O", "note": "[Ciprofloxacin]", "values": [{"measurement": "LD50 in mice by intraperitoneal injection", "result": 1165, "unit": "mg/kg"}]}
